Data on eleven molecules can be found in paper PMC11172389.

Chains of the proteins cited; added tags and fusions are not shown.
UniProt Q9Z0V1: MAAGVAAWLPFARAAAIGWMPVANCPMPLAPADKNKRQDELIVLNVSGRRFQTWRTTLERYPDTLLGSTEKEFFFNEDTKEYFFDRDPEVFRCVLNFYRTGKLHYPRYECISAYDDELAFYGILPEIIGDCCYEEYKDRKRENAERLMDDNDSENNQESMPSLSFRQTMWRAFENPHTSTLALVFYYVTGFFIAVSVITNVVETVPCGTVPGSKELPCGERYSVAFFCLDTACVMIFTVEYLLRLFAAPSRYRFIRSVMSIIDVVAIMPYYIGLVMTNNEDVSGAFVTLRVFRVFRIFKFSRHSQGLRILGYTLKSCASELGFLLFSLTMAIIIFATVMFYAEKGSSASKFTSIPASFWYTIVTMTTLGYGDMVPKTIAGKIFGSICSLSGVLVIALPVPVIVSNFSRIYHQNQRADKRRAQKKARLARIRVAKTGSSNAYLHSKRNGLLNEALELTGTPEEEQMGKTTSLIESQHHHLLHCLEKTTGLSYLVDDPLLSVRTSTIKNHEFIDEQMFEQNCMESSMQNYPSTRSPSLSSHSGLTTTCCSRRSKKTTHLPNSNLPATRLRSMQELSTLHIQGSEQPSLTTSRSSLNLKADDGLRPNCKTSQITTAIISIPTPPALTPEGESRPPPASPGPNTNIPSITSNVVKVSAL
UniProt Q99246: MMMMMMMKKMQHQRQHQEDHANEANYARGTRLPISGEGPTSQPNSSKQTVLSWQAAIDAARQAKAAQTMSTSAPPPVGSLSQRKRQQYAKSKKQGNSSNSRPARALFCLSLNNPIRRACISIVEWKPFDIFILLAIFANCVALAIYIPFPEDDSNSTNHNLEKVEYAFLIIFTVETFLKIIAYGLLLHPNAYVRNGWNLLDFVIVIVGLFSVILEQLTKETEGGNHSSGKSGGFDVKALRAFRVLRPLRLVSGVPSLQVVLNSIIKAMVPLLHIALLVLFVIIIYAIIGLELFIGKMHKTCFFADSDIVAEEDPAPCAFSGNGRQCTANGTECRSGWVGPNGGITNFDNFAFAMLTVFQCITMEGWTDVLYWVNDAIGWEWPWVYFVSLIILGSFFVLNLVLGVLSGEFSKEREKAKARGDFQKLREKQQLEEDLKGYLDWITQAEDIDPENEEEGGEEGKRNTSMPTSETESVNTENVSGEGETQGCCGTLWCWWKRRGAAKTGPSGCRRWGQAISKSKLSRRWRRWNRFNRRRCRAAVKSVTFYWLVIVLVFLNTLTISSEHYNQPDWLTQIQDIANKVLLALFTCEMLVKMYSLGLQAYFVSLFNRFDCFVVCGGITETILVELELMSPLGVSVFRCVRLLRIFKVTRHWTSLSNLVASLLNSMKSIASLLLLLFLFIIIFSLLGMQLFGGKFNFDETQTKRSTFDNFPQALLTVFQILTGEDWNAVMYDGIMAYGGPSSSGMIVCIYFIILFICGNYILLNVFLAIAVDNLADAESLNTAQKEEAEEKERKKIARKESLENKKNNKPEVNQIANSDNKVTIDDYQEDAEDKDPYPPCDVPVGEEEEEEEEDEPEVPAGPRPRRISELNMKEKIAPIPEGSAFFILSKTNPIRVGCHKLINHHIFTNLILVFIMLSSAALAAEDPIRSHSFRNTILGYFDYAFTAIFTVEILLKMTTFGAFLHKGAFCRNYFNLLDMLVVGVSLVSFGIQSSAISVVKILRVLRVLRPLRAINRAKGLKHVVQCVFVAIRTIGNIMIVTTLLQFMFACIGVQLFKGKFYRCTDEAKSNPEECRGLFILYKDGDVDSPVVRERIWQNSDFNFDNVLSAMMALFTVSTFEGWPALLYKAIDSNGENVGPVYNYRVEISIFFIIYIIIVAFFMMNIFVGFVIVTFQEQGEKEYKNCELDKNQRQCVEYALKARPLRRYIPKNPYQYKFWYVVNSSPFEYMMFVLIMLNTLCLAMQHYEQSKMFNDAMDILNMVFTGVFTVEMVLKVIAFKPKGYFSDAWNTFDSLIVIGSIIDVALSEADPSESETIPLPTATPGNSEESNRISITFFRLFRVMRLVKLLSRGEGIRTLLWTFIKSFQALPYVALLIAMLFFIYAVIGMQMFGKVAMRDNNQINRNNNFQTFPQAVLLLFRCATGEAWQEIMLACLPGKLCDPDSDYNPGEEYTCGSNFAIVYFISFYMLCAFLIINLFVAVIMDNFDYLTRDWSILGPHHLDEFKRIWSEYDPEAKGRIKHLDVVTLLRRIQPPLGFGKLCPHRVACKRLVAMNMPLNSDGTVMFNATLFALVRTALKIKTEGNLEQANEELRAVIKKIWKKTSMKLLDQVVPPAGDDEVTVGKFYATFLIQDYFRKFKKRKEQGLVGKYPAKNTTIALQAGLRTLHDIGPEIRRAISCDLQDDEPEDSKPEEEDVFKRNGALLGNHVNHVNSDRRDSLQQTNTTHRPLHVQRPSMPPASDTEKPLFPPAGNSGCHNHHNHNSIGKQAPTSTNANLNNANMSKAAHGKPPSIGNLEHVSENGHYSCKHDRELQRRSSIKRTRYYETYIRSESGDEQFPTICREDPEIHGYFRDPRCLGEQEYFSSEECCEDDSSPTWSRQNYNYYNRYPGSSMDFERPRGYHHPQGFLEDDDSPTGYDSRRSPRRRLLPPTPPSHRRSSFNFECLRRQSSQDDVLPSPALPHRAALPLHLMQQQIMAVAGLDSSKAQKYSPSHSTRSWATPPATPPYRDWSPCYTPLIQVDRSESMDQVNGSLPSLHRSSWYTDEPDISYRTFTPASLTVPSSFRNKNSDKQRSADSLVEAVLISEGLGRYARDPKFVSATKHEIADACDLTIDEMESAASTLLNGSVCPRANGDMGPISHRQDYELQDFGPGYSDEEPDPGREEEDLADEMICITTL
UniProt O70507: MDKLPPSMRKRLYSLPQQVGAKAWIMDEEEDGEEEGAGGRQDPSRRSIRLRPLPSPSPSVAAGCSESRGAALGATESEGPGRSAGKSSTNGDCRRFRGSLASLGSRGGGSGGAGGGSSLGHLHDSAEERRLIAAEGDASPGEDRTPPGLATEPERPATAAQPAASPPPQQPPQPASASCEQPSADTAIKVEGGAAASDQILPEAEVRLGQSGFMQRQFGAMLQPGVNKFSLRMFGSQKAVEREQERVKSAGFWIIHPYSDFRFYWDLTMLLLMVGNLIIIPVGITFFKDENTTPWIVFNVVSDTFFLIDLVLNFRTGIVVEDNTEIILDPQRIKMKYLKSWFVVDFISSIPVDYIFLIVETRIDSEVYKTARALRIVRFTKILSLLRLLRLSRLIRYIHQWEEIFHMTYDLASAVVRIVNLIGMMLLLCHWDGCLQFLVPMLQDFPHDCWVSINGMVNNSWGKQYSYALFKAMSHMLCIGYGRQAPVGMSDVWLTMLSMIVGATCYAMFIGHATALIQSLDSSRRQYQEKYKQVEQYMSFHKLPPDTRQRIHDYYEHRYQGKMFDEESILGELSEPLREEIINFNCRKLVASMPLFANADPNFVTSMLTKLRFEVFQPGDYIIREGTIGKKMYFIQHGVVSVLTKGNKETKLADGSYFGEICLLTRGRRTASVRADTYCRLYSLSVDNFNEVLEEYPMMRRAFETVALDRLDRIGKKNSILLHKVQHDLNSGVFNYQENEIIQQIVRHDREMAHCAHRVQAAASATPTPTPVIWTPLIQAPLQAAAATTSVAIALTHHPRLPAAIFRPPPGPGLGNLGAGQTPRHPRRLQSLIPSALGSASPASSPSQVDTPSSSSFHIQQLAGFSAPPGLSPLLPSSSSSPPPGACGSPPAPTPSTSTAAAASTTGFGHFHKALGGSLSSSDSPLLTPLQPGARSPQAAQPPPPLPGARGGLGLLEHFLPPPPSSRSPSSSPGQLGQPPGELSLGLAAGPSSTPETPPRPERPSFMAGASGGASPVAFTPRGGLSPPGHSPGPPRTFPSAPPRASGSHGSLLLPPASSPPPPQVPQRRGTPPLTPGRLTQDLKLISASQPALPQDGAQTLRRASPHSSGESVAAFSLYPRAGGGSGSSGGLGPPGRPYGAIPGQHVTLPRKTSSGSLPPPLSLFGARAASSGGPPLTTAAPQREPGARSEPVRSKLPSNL
UniProt Q01815: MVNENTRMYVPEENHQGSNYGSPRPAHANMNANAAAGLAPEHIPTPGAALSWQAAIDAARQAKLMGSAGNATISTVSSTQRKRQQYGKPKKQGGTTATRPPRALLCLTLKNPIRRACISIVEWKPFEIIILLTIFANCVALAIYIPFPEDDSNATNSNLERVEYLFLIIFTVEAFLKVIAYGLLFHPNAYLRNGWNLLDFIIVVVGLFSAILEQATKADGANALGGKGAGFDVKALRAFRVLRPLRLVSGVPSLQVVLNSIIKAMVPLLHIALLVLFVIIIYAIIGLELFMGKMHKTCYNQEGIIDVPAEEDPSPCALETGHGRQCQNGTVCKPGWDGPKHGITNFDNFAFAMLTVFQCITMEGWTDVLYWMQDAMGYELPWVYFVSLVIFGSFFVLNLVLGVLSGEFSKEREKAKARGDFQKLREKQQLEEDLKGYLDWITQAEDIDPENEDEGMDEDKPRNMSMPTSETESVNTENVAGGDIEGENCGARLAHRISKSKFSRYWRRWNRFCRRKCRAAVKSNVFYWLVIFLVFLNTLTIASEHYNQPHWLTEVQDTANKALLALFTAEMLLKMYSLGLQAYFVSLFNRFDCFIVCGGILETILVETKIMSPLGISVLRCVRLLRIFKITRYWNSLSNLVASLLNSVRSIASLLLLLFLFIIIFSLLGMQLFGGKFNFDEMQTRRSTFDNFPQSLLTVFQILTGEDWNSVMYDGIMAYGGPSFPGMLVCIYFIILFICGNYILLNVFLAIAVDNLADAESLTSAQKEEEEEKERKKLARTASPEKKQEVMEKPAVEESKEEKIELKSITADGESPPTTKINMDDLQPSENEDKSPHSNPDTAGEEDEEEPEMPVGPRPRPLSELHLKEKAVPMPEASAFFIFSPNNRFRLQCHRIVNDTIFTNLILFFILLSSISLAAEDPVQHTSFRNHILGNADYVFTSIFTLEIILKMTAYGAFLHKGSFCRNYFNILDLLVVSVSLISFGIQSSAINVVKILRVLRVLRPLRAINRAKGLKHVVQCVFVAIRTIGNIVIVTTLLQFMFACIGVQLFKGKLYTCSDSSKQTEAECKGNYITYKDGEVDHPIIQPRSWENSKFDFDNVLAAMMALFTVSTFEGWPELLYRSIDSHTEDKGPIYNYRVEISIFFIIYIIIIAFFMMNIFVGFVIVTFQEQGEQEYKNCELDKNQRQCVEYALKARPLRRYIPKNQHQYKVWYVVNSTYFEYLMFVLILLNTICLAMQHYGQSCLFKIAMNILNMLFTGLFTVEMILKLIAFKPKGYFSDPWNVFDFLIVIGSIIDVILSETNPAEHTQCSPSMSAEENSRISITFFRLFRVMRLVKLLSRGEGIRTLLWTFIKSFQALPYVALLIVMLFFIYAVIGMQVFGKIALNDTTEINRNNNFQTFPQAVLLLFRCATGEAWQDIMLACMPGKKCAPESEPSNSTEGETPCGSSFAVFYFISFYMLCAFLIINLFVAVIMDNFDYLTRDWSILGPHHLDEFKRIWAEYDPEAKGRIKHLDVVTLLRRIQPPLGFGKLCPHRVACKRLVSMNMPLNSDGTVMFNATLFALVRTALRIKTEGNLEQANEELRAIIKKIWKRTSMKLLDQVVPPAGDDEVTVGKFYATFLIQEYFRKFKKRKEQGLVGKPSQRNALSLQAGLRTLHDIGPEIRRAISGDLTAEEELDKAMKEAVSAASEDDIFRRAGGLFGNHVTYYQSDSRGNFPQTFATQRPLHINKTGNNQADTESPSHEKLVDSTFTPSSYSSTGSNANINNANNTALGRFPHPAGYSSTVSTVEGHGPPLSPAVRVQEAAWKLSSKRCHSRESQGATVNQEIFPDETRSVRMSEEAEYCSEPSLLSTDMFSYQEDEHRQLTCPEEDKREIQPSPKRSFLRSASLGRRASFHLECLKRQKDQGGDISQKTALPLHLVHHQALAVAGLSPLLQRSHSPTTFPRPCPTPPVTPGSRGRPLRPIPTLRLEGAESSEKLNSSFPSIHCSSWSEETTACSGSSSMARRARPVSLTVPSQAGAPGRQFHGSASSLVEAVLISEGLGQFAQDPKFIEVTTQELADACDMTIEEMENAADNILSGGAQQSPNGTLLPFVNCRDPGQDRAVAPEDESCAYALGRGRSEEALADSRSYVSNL

No constants are given. Whether binding was seen depends on the method and setting. In cells and extracts the contact can be indirect. A yes stands for co-enrichment or nearness to the bait. Other partners may have been found. For some of these results: A no says only that the protein was not detected with the bait. For some of these results: Tags and fused reporters may be left off the sequences shown.

What all share (test): affinity purification with mass spectrometry; mouse midbrain plasma-membrane-enriched fraction solubilised in CL47a; antibody-coated magnetic beads (protein A Dynabeads for Cav1.3), 2 h at 4 °C; LC-MS/MS, iBAQ, Class A/B against 11 control IPs from knock-out mice
Test [1] has as its target Kv4.3 A-type potassium channel (mouse (endogenous in midbrain)) (UniProt Q9Z0V1).
Test [2] has as its target Cav1.3 L-type voltage-dependent Ca2+ channel α1-subunit (mouse (endogenous in midbrain)) (UniProt Q99246).
In test [3] the target is T1, hyperpolarization-activated cyclic nucleotide-gated channel HCN2 (mouse (endogenous in midbrain)) (UniProt O88703).
T1 sequence: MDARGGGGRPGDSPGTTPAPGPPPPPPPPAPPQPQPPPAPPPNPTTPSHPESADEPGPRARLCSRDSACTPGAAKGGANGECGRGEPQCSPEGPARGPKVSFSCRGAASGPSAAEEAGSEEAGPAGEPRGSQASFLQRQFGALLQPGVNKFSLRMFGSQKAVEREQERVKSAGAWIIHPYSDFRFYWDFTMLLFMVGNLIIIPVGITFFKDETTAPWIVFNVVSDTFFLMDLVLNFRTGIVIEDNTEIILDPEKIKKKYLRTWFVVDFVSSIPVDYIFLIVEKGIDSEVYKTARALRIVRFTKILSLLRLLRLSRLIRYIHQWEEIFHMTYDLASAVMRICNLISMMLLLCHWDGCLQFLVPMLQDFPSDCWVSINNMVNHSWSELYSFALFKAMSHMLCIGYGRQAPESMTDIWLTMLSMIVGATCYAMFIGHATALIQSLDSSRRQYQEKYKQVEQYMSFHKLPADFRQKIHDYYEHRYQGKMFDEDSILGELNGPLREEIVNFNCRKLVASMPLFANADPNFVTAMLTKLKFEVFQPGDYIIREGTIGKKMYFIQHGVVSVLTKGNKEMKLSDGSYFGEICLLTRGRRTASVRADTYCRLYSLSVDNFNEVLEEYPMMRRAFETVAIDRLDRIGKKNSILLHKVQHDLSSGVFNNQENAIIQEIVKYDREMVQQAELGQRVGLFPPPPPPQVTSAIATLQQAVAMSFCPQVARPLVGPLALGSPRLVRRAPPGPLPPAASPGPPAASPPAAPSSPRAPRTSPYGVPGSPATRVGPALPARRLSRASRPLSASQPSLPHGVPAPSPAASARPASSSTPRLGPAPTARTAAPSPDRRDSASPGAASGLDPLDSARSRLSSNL

Test [4] addresses hyperpolarization-activated cyclic nucleotide-gated channel HCN4 (mouse (endogenous in midbrain)) (UniProt O70507).
Test [5] addresses SK3 calcium-activated small-conductance potassium channel (mouse (endogenous in midbrain)) (UniProt P58391).
In test [6] the target is Cav1.2 L-type voltage-dependent Ca2+ channel α1-subunit (mouse (endogenous in midbrain)) (UniProt Q01815).

Consider “Kv4.3 channel auxiliary subunit Dpp6 (from UniProt Q9Z218 1-804)”, for which, in test [1], the binding result is listed as “binds”.
On to “hyperpolarization-activated cyclic nucleotide-gated channel HCN4 (from UniProt O70507 1-1201)”, for which the binding entry in test [2] and in test [3] was “binds” each time.
Consider “hyperpolarization-activated cyclic nucleotide-gated channel HCN1 (from UniProt O88704 1-910)”, for which the binding entry in test [3] and in test [4] was “binds” each time.
As to “Pex5-related protein Pex5r (from UniProt Q8C437 1-567)”, the binding entry in test [2] and in test [3] was “binds” throughout.
As to “voltage-dependent calcium channel auxiliary subunit α2δ1 (from UniProt O08532 25-1103)”, the binding result is listed as “no binding” in test [2] and “binds” in test [5].
For “Kv4.3 channel auxiliary subunit Dpp10 (from UniProt Q6NXK7 1-797)”, in test [1], the binding result is listed as “binds”.

B1: sterile alpha and Toll/interleukin-1 receptor (TIR) motif-containing 1 (protein, UniProt Q6PDS3 28-724)
chain: LTVPGPDRSGGASPWWAAGGRGSREVSPGVGTEVQGALERSLPELQQALSELKQASAARAVGAGLAEVFQLVEEAWLLPAVGREVAQGLCDAIRLDGGLDLLLRLLQAPELETRVQAARLLEQILVAENRDRVARIGLGVILNLAKEREPVELARSVAGILEHMFKHSEETCQRLVAAGGLDAVLYWCRRTDPALLRHCALALANCALHGGQTVQRCMVEKRAAEWLFPLAFSKEDELLRLHACLAVAVLATNKEVEREVEHSGTLALVEPLVASLDPGRFARCLVDASDTSQGRGPDDLQSLVLLLDSSRLEAQCIGAFYLCAEAAIKSLQGKTKVFSDIGAIQSLKRLVSYSTNGTTSALAKRALRLLGEEVPRRILPCVASWKEAEVQTWLQQIGFSQYCENFREQQVDGDLLLRLTDEELQTDLGMKSSITRKRFFRELTELKTFASYATCDRSNLADWLGSLDPRFRQYTYGLVSCGLDRSLLHRVSEQQLLEDCGIRLGVHRTRILSAAREMLHSPLPCTGGKLSGDTPDVFISYRRNSGSQLASLLKVHLQLHGFSVFIDVEKLEAGKFEDKLIQSVIAARNFVLVLSAGALDKCMQDHDCKDWVHKEIVTALSCGKNIVPIIDGFEWPEPQALPEDMQAVLTFNGIKWSHEYQEATIEKIIRFLQGRPSQDSSAGSDTSLEGATPMGLP
For B1, the binding entry is on record as “no binding” in test [3] and “binds” in test [4].

B2: G-protein-activated inward rectifier potassium channel 2 (protein, UniProt P48542 1-425)
chain: MTMAKLTESMTNVLEGDSMDQDVESPVAIHQPKLPKQARDDLPRHISRDRTKRKIQRYVRKDGKCNVHHGNVRETYRYLTDIFTTLVDLKWRFNLLIFVMVYTVTWLFFGMIWWLIAYIRGDMDHIEDPSWTPCVTNLNGFVSAFLFSIETETTIGYGYRVITDKCPEGIILLLIQSVLGSIVNAFMVGCMFVKISQPKKRAETLVFSTHAVISMRDGKLCLMFRVGDLRNSHIVEASIRAKLIKSKQTSEGEFIPLNQSDINVGYYTGDDRLFLVSPLIISHEINQQSPFWEISKAQLPKEELEIVVILEGIVEATGMTCQARSSYITSEILWGYRFTPVLTMEDGFYEVDYNSFHETYETSTPSLSAKELAELANRAEVPLSWSVSSKLNQHAELETEEEEKNPEELTERNGDVANLENESKV
Turning to B2, in test [6], the binding result was “binds”.

B3: Rab-interacting molecule-binding protein Rimbp2 (protein, UniProt Q80U40 1-1072)
chain: MREAAERRQQLELEHEQALAFLNAKQQEIQLLQQAQVEAKKEHEGAVQLLESKVRELEEKCRVQSEQFNLLSRDLEKFRQHTGSIDLLGSSSVALLDVPLAPGKPFPQYMNGLATSIHKGHEGPTGHYSVIGDYIPLSGDKLESPCVKPSFLLRSSSPRCRFESEMDNDRNSNNSKQSSSGKVHLCVARYSYNPFDGPNENPEAELPLTAGKYLYVYGDMDEDGFYEGELLDGQRGLVPSNFVDFIQDNESRLAGTLGSEQDQNFLNHSGISLERDSILHLHSPTQVDSGITDNGGGTLDVNIDDIGEDTVPYPRKITLIKQLAKSVIVGWEPPAVPPGWGTVSSYNVLVDKETRMSLALGRRTKALIEKLNTAACTYRISVQCVTSRGNSDELQCTLLVGKDVVVAPSQLRVDNITQISAQLSWLPTNSNYSHIIFLNEEELDIVKAARYKYQFFNLRPNMAYKVKVLAQPHQMPWQLPLEQREKKEACVEFSTLPAGPPAPPQDVTVHAGATAASVQVSWKPPALTPTGLSNGANVTGYGVYAKGQRVAEVIAPTADGTAVELIRLRSLEAKAVSVRTLSVQGESMDSALAAIPPDLLVPPAPHPRTAPPPKPLASDMDTKDQHLGPHVKVDESWEQSRSPGPAHGHMLEPPDMHSAGPGRRSPSPSRILPQPQGAPVSTTVAKAMAREAAQRVAESNRLEKRSLFLEQSSAGQYTNSDEEDGYASPEVKRRGTSVDDFLKGSELGKQPHCCHGDEYHTESSRGSDLSDIMEEDEEELYSEMQLEDGGRRRPSGTSHNALKILGNSTLMGRADRMEHVSRRYSHSGGGSHRHRPAMAPSIDEYTGRDHLSPDFYDESETDPGAEELPARIFVALFDYDPLTMSPNPDAAEEELPFKEGQIIKVYGDKDADGFYRGETCARLGLIPCNMVSEIHADDEEMMDQLLRQGFLPLNTPVEKIERSRRSGRGHSVPTRRMVALYDYDPRESSPNVDVEAELPFCTGDIITVFGEIDEDGFYYGELNGQKGLVPSNFLEEVPDDVEVHLSDAPPHYSHDPPMRSKAKRKKSVHFTP
For the molecule B3, the binding entry in test [2] is reported as “binds”.

B4: Kv4.3 channel auxiliary subunit Kchip 4 (protein, UniProt Q6PHZ8 1-250)
chain: MNVRRVESISAQLEEASSTGGFLYAQNNTKRSIKERLMKLLPCSAAKTSSPAIQNSVEDELEMATVRHRPEALELLEAQSKFTKKELQILYRGFKNECPSGVVNEETFKEIYSQFFPQGDSTTYAHFLFNAFDTDHNGAVSFEDFIKGLSILLRGTVQEKLNWAFNLYDINKDGYITKEEMLDIMKAIYDMMGKCTYPVLKEDAPRQHVETFFQKMDKNKDGVVTIDEFIESCQKDENIMRSMQLFENVI
With B4, the binding entry in test [1] is on record as “binds”.

B5: Kv4.2 channel (protein, UniProt Q9Z0V2 1-630)
chain: MAAGVAAWLPFARAAAIGWMPVASGPMPAPPRQERKRTQDALIVLNVSGTRFQTWQDTLERYPDTLLGSSERDFFYHPETQQYFFDRDPDIFRHILNFYRTGKLHYPRHECISAYDEELAFFGLIPEIIGDCCYEEYKDRRRENAERLQDDADTDNTGESALPTMTARQRVWRAFENPHTSTMALVFYYVTGFFIAVSVIANVVETVPCGSSPGHIKELPCGERYAVAFFCLDTACVMIFTVEYLLRLAAAPSRYRFVRSVMSIIDVVAILPYYIGLVMTDNEDVSGAFVTLRVFRVFRIFKFSRHSQGLRILGYTLKSCASELGFLLFSLTMAIIIFATVMFYAEKGSSASKFTSIPAAFWYTIVTMTTLGYGDMVPKTIAGKIFGSICSLSGVLVIALPVPVIVSNFSRIYHQNQRADKRRAQKKARLARIRAAKSGSANAYMQSKRNGLLSNQLQSSEDEPAFISKSGSSFETQHHHLLHCLEKTTNHEFVDEQVFEESCMEVATVNRPSSHSPSLSSQQGVTSTCCSRRHKKTFRIPNANVSGSHRGSVQELSTIQIRCVERTPLSNSRSSLNAKMEECVKLNCEQPYVTTAIISIPTPPVTTPEGDDRPESPEYSGGNIVRVSAL
With B5, the binding result in test [1] is “binds”.
